Consider 3 substances from article PMC8429728, “TNK1 is a ubiquitin-binding and 14-3-3-regulated kinase that can be targeted to block tumor growth” (Nature Communications, 2021).

Amino acid sequences for entries named in this document (tags omitted).
UniProt P31946: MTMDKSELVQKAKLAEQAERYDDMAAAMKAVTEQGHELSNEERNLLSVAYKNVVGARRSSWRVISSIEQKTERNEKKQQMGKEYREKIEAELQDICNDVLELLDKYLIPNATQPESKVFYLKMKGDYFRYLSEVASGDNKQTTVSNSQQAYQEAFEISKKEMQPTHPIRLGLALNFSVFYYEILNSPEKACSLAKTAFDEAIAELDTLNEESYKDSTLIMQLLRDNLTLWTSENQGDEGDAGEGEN
UniProt P62258: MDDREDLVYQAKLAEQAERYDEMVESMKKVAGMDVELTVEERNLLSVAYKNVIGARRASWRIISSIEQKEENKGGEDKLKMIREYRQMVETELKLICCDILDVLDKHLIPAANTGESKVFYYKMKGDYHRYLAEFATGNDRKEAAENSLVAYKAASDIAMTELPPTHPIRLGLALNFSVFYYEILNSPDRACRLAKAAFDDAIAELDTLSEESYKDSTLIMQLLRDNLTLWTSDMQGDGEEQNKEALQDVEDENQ

For experiment [1], the target named is T1, TNK1-BirA-HA (human) (UniProt Q13470).
T1 sequence: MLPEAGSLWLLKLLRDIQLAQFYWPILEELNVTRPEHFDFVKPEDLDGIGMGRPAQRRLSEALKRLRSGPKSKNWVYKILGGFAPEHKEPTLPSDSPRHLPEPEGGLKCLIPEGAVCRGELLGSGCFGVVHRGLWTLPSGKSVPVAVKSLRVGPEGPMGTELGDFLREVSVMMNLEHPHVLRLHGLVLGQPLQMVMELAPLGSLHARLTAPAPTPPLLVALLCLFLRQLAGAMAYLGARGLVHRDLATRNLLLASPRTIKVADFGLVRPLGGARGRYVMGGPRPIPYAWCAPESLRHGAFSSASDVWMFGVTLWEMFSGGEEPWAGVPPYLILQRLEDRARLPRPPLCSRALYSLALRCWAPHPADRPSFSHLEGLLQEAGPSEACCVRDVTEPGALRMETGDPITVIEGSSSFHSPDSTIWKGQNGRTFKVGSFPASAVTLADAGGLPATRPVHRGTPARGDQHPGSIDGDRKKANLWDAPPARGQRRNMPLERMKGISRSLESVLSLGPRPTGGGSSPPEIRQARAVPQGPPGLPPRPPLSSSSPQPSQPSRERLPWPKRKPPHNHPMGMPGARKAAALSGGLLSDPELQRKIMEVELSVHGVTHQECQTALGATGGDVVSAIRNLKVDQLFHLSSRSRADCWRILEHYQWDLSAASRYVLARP
The experiment in a line: proximity labelling; BioID: TNK1-BirA-HA in HEK-293T, 50 nM biotin for 10 h, lysis in RIPA without SDS, streptavidin agarose, LC-MS/MS.

In experiment [2] the target is T2, FLAG-TNK1 (wild type) (human) (UniProt Q13470).
T2 sequence: T1 sequence
The experiment in a line: affinity purification with mass spectrometry; direct co-IP of FLAG-TNK1 followed by LC-MS/MS.

These are yes or no findings as the source states them, for the method shown. Binding seen in cells or lysates may run through a third protein. These calls come from enrichment with a bait or labelling near it, and not all partners need be listed. Sequences can lack the tags named with a protein.

For the substance 14-3-3 β (from UniProt P31946 1-246), in experiment [1], the binding entry is “binds”. For the substance 14-3-3 ε (from UniProt P62258 1-255), the binding result in experiment [2] and in experiment [1] was “binds” each time.

Take “14-3-3 ζ (endogenous) (human (endogenous in HEK-293T))”: the binding result in experiment [2] and in experiment [1] was “binds” each time.
